This passage reports binding results from publication PMC8546688.

Protein sequences, listed by entry. Tags and fused reporters are not part of them. Lines headed by an entry give the natural chain unless they say otherwise; changes in a name come on top.
UniProt A0A0H3N1P0: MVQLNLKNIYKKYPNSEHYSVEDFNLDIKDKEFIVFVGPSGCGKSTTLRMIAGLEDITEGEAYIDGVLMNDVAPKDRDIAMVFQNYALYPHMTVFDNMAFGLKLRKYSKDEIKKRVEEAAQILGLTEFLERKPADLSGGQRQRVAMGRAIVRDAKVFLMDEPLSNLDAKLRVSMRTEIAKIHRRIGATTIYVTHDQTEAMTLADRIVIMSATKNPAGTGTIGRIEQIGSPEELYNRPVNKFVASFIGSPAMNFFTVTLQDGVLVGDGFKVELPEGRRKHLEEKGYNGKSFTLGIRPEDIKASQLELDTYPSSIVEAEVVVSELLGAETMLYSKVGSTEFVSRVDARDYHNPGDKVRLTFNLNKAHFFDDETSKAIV
UniProt A0A0H3MXZ7: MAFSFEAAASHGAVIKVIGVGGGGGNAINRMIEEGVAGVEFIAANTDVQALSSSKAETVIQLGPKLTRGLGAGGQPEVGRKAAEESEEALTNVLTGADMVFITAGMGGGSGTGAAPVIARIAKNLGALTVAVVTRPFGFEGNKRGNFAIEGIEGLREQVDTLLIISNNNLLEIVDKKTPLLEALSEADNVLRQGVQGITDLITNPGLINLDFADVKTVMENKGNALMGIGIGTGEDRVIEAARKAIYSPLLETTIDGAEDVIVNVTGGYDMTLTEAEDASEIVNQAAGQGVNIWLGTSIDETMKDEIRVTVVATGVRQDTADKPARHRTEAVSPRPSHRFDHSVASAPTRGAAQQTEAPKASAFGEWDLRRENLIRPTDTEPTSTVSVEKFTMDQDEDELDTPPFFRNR

Results are given in words; binding and its absence hold for the method and conditions named. Binding calls can cover weak binding; strength is not graded here. For part of these data: In cells and extracts the contact can be indirect.

Assay [1] deals with His-tagged FtsZ (filamentous temperature-sensitive protein Z) (Streptococcus suis). Description: co-sedimentation; FtsZ (6 μM) incubated with increasing amounts of MsmK constructs with 2 mM GTP (1 mM ATP added if needed); high-speed centrifugation; pellets on Coomassie-stained gels; both purified.
The target in assay [2] is N_MsmK (amino acids 1 to 234), His-tagged (Streptococcus suis). Description: far-Western, overlay or dot blot; far-Western blot of MsmK and its derivatives incubated with FtsZ; both purified.
The target in assay [3] is His-tagged MsmK (multiple sugar metabolism protein K), full length (Streptococcus suis). The description is as above.
Assay [4] concerns the target MsmK with a His tag at the C terminus, expressed in S. suis strain CΔmsmK-His (Streptococcus suis). Briefly: co-IP; exponentially growing S. suis cells cross-linked with 0.1% paraformaldehyde; lysate supernatant on Ni-NTA, 50 mM Tris-HCl pH 7.4, 150 mM NaCl, 25 mM imidazole, 4°C; washed with 80 mM, eluted with 250 mM imidazole; blots with anti-His, anti-MsmK and anti-FtsZ.

The target of assay [5] is FtsZ, bacterial two-hybrid fusion (Streptococcus suis). Briefly: two-hybrid; bacterial two-hybrid; pBT- and pTRG-related plasmids cotransformed into the reporter strain; growth on selective plates with 3-AT and streptomycin.

With “N_MsmK (amino acids 1 to 234), His-tagged (from UniProt A0A0H3N1P0 1-234) (domain or fragment)”, the binding result in assay [1] was “binds”.
Take “His-tagged FtsZ (filamentous temperature-sensitive protein Z) (from UniProt A0A0H3MXZ7 1-409)”: the binding entry in assay [2] and in assay [3] was “binds” throughout.
Take “endogenous FtsZ of S. suis (from UniProt A0A0H3MXZ7 1-409)”: the binding result in assay [4] was “binds”.
As to “His-tagged MsmK (multiple sugar metabolism protein K), full length (from UniProt A0A0H3N1P0 1-376) (enzyme)”, the binding result in assay [1] is “binds”.
For “MsmK, bacterial two-hybrid fusion (pTRG-msmK) (from UniProt A0A0H3N1P0 1-376) (enzyme)”, the binding entry in assay [5] is “binds”.
